Assay results: PubChem BioAssay AID1347075 (National Center for Advancing Translational Sciences (NCATS), 2019)
Out of some 400,000 compounds screened, about 5,500 (1.4%) were called active. The inconclusive results got no clear call from the source; some entries with a clear call stand among them for comparison. The call rests on the fitted dose curve; in most records, active means well fitted cell-killing curve with a large enough effect; inconclusive means small, poorly fitted or top-dose-only effect, or effect the other way; inactive means flat fitted curve, though single readings scatter. Potencies beside an inconclusive call are fits to weak or partial responses and may not hold up.

Test: qHTS assay for MDR1-selective chemotherapeutics: Primary screen using the parental adenocarcinoma cell KB-3-1; further: nearly all actives have a fitted effect of over 60% in size
Conditions: KB-3-1 viability, CellTiter-Glo ATP luminescence, 72 h; activity change, negative = cytotoxic: at 46.1 µM (top of the series)
Method in brief: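 KB-3-1 parental drug-naive adenocarcinoma cells in DMEM/10% FBS, incubated 72 h at 37 C with pin-transferred compounds across a concentration series. Viability by CellTiter-Glo luminescence; concentration-response curves fitted after normalization.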
On the % scale 0 is the no-effect control and ±100 the full control effect; potency means the concentration at half of the fitted maximal effect.

Row | SMILES | activity change, negative = cytotoxic | Potency
1 | Cc1cc(C)cc(N(CCC#N)C(=O)COC(=O)CCc2c[nH]c3ccccc23)c1 | inactive: -1.91% | –
2 | CCOC(=O)c1c(C)oc2nc(C)nc(NCc3ccc(C)cc3)c12 | inactive: 0.769% | –
3 | CC(=O)NC(c1cccs1)c1cc(F)c2cccnc2c1O (stereo not given) | – | active: 10.3 µM
4 | Cc1cccc(N2CCN(S(=O)(=O)c3ccc4oc(=O)c5ncn(C)c5c4c3)CC2C)c1 (stereo not given) | inactive: -0.685% | –
5 | CCC(C)[C@H]1CN=C(N)N1CCc1cc(C(F)(F)F)cc(C(F)(F)F)c1 (stereo not given in full) | – | inconclusive: 18.4 µM [cytotoxic, single point]
6 | O=CNc1cc(-c2cccc(F)c2)cn2c(-c3ccc(F)c(Cl)c3)cnc12 | – | inconclusive: 29.1 µM [cytotoxic, single point]
7 | N=c1c(C(=O)NCc2ccco2)cc2c(=O)n3ccccc3nc2n1Cc1ccccc1 | – | inconclusive: 23.1 µM [cytotoxic, single point]
8 | CCCC(O)(CCC)C(=O)NNc1ccccc1 | inactive: 12.8% | –
9 | COC1(OC)N=C(N)C2(C#N)C(c3ccc(F)cc3)C12C#N (stereo not given) | inactive: 9.32% | –
10 | Cc1cccc[n+]1CCCCCCCCCC[n+]1ccccc1C | – | active: 1.46 µM
11 | COc1ccc(C(=O)NC(NC(=S)Nc2ccc(S(N)(=O)=O)cc2)C(Cl)(Cl)Cl)cc1 (stereo not given) | – | inconclusive: 29.1 µM [cytotoxic, single point]
12 | COCCn1c(-c2ccc(Cl)cc2)cnc1SCC(=O)NCCc1ccc(OC)c(OC)c1 | – | inconclusive: 29.1 µM [cytotoxic, single point]
13 | Cc1ccc(NS(=O)(=O)c2ccc(C(=O)N3CCCCCC3)cc2)cc1 | – | inconclusive: 23.1 µM [cytotoxic, single point]
14 | COc1ccc(N2CC3=C(C2=O)C(c2ccc(Br)cc2)NC(=O)N3C)cc1 (stereo not given) | inactive: -1.93% | –
15 | Cc1cc(Nc2sc(C(=O)c3ccc(F)cc3)c(N)c2C(=O)Nc2ccc(F)cc2)ccc1Cl | – | inconclusive: 3.26 µM [cytotoxic, partial curve, poor fit]
16 | CCn1cc([N+](=O)[O-])c(C(=O)Nc2ccn(Cc3ccccc3F)n2)n1 | inactive: -0.256% | –
17 | CCCCN(Cc1ccco1)S(=O)(=O)c1c[nH]c(C(=O)OC)c1 | – | inconclusive: 16.4 µM [cytotoxic, partial curve, poor fit]
18 | CCOc1ccc(S(=O)(=O)N2CCN(C(=O)Cc3n[nH]c(=O)c4ccccc34)CC2)cc1 | – | inconclusive: 23.1 µM [rising, partial curve, poor fit]
19 | CCOC(=O)C1=C(N)Oc2cc(O)ccc2C1c1ccccc1 (stereo not given) | – | inconclusive: 29.1 µM [cytotoxic, single point]
20 | C=CCN(c1ccccc1)S(=O)(=O)c1cccc(C(=O)NCC(c2ccc(OC)cc2)N2CCCCC2)c1 (stereo not given) | – | inconclusive: 29.1 µM [cytotoxic, single point]
21 | COC(=O)[C@]12CCCCC=C1N(Cc1cccc3ccccc13)C(=O)[C@H](CC(=O)NCCc1ccccc1OC)C2 | – | inconclusive: 18.4 µM [cytotoxic, single point]
22 | Cc1cc(OC(=O)c2c(C)cc(OC(=O)c3c(C)cc(O)cc3O)cc2O)cc(O)c1C(=O)O | – | inconclusive: 1.16 µM [rising, partial curve, poor fit]
23 | CN(C)S(=O)(=O)c1ccc(N2CCCC2)c(C(=O)N2CCN(c3ccc([N+](=O)[O-])cc3)CC2)c1 | inactive: 1.13% | –
24 | Cc1c(C(=O)OC2CCCC2)[nH]c2c1C(=O)CC(c1ccc(C(C)(C)C)cc1)C2 (stereo not given) | inactive: 1.14% | –

Row | SMILES | activity change, negative = cytotoxic | Potency
25 | Cn1c(SCC(=O)Nc2ccccc2)nc2ccccc2c1=O | inconclusive: -32.1% [cytotoxic] | –
26 | CC1=CC(C)(C)N2C(=O)C(=Nc3ccc(O)cc3)c3cccc1c32 | – | inconclusive: 29.1 µM [cytotoxic, single point]
27 | CCN(CCCNC(=O)c1cc2cc3cc(OC)ccc3nc2s1)c1cccc(C)c1 | – | inconclusive: 29.1 µM [cytotoxic, single point]
28 | COc1ccc(OCc2nnc(SCC(=O)Nc3ccccc3F)o2)cc1 | – | inconclusive: 16.4 µM [rising, partial curve, poor fit]
29 | CCOC(=O)Cc1ccc(Nc2nc(NCc3cccs3)nc3ccsc23)cc1 | inactive: -0.0609% | –
30 | O=C(COC(=O)c1ccc(Br)o1)Nc1cccc(S(=O)(=O)N2CCOCC2)c1 | – | inconclusive: 25.9 µM [rising, single point]
31 | c1ccc(COc2ccc(CN3CCN(c4ccccn4)CC3)cc2)cc1 | inactive: 3.37% | –
32 | CCOc1ccc(S(=O)(=O)N2CCN(C(=O)c3cc(C4CC4)nn3-c3ccccc3)CC2)cc1 | inactive: -18% | –
33 | COc1ccc(NC(=O)C2CCN(c3cc(-c4ccccc4)nc4ncnn34)CC2)cc1OC | – | inconclusive: 29.1 µM [cytotoxic, single point]
34 | CC(C)(C)OC(=O)NCCCC[C@H](NC(=O)c1nc[nH]c1C(=O)NC1CCN(C(=O)OC(C)(C)C)CC1)C(=O)OC(C)(C)C | – | inconclusive: 23.1 µM [cytotoxic, single point]
35 | CC[C@]12c3[nH]c4ccccc4c3CCN1C(=O)C(CC(=O)NCCc1ccccn1)C[C@@H]2C(=O)N1CCN(C(=O)c2ccco2)CC1 (stereo not given in full) | inactive: -24.4% | –
36 | Cc1cc(C)cc(NC(=O)CN2C(=O)COc3ccc(S(=O)(=O)Nc4ccccc4)cc32)c1 | inactive: -12.1% | –
37 | C=CCn1c(O)c(N=NC(=S)Nc2ccccc2F)c2ccccc21 | – | inconclusive: 6.51 µM [cytotoxic, full curve]
38 | COc1ccccc1C(=O)Nc1ccc(OCC(=O)N2CC(C)OC(C)C2)cc1 (stereo not given) | inactive: 18.1% | –
39 | COc1ccc(C(=O)c2ccc(OC)cc2OC)cc1 | – | active: 14.6 µM
40 | O=C(NCCc1ccccc1F)C1CCCN1S(=O)(=O)c1ccc2ccccc2c1 (stereo not given) | – | inconclusive: 4.61 µM [cytotoxic, partial curve, poor fit]
41 | OCCNCCOCCOc1ccccc1-c1ccccc1 | inactive: -3.76% | –
42 | CCC(C)NC(=O)c1cn(CC)c2ccc(S(=O)(=O)N3CCCCC3)cc2c1=O (stereo not given) | – | inconclusive: 32.6 µM [cytotoxic, single point]
43 | O=C(Nc1cccc(-c2cccc(F)c2)c1)C1CCN(CC2CCOC2)CC1 (stereo not given) | – | inconclusive: 29.1 µM [cytotoxic, single point]
44 | O=C(NCCS(=O)(=O)N1CCN(c2ccccc2F)CC1)c1c(F)cccc1F | – | inconclusive: 29.1 µM [cytotoxic, single point]
45 | CC1=C(c2ccc(C)cc2)S(=O)(=O)N=C1N1CCN(c2ccccc2)CC1 | inactive: 5.02% | –
46 | CN(c1ccccc1)S(=O)(=O)c1cc(C(=O)N2CCN(c3ncccn3)CC2)ccc1Cl | – | inconclusive: 7.31 µM [cytotoxic, partial curve]
47 | COc1ccc(CNC2CCCc3ccccc32)cc1OC (stereo not given) | – | inconclusive: 0.366 µM [cytotoxic, full curve]
48 | CCOC(=O)c1cc(C#N)c(N2CCN(C(=O)c3ccccc3)CC2)nc1C(F)(F)F | inactive: 0% | –

Row | SMILES | activity change, negative = cytotoxic | Potency
49 | COc1ccc(S(=O)(=O)n2nc(-c3ccc(Cl)cc3)cc2N)cc1 | – | inconclusive: 11.6 µM [cytotoxic, partial curve]
50 | CS(=O)(=O)c1ccc(C(=O)OCC(=O)NCc2cccs2)cc1[N+](=O)[O-] | – | inconclusive: 20.6 µM [cytotoxic, single point]
51 | CCOc1ccc(OCC(=O)Nc2nccs2)cc1 | – | inconclusive: 16.4 µM [cytotoxic, partial curve, poor fit]
52 | CCOC(=O)c1sc(=S)n(C)c1NC(=O)c1ccc(F)cc1 | inactive: -1.36% | –
53 | COc1ccc(-c2nn3c(-c4cc(-c5ccccc5)n[nH]4)nnc3s2)cc1 | – | inconclusive: 13 µM [cytotoxic, single point]
54 | COC(=O)c1sc(NC(=O)c2cccc([N+](=O)[O-])c2)c(C(N)=O)c1C | – | inconclusive: 23.1 µM [rising, single point]
55 | CC(C)C1C(=O)N(Cc2cn(CC3CCCCC3)nn2)CCS(=O)(=O)N1Cc1ccc(-c2ccncc2)cc1 (stereo not given) | inactive: 0% | –
56 | Cc1cccc(Cn2cnc3c(NS(C)(=O)=O)c(C)c(C)cc32)c1 | – | inconclusive: 29.1 µM [cytotoxic, single point]
57 | N#C/C(C(=O)NCc1ccco1)=C1/SC(Cc2ccc(F)cc2)C(=O)N1c1ccccc1 (stereo not given) | inactive: 0.301% | –
58 | O=C(Nc1ccc(OCC(F)(F)C(F)F)c(C(F)(F)F)c1)c1ccc(Cl)cc1 | – | inconclusive: 29.1 µM [cytotoxic, single point]
59 | CN(C)c1cccc(-c2ncnc(N3CCC(C(N)=O)CC3)n2)c1 | inactive: 16.1% | –
60 | Cc1cn([C@H]2C[C@H](O)[C@@H](CNC=O)O2)c(=O)[nH]c1=O | inactive: 13.5% | –
61 | COc1ccccc1OCCn1c(=O)n(C)c2ccccc21 | inactive: -1.83% | –
62 | CC(=O)N(c1ccccc1)C(C)c1nc(C#N)c(C#N)nc1C (stereo not given) | – | inconclusive: 5.8 µM [rising, partial curve, poor fit]
63 | CCOC(=O)CSc1nc(-c2ccc(Cl)cc2)cc(C(F)(F)F)c1C#N | inactive: -6.57% | –
64 | CCOC(=O)c1cccc(Nc2ncnc3ccc(C)cc23)c1 | – | inconclusive: 23.1 µM [cytotoxic, single point]
65 | Cn1c(Cc2ccccc2)nnc1SCC(=O)NC1CC1 | inconclusive: -14.4% | –
66 | CC(=O)ON=C1C=CC(=C(C#N)c2ccccc2)C=C1 | – | active: 3.66 µM
67 | Cc1cccc(N2CCN(C(=O)c3ccc4[nH]c(C)c(C)c4c3)CC2)c1C | – | active: 25.9 µM
68 | CC(C)Cn1cnc2c(c(-c3ccccc3)c(-c3ccccc3)n2Cc2ccco2)c1=N | – | inconclusive: 25.9 µM [cytotoxic, single point]
69 | C=CCOC(=O)C1=C[C@H](c2csc3ccccc23)C[C@H](OCCCCO)O1 | inconclusive: 33.1% | –
70 | CCn1c(C(=O)N2CCC(C(=O)NCCCSC3CCCCC3)CC2)cc2sccc21 | – | inconclusive: 16.4 µM [cytotoxic, partial curve]

A second format for 3 compounds above.
CC(C)Cn1cnc2c(c(-c3ccccc3)c(-c3ccccc3)n2Cc2ccco2)c1=N
  Potency: inconclusive: 25.9 µM [cytotoxic, single point]
C=CCOC(=O)C1=C[C@H](c2csc3ccccc23)C[C@H](OCCCCO)O1
  activity change, negative = cytotoxic: inconclusive: 33.1%
CCn1c(C(=O)N2CCC(C(=O)NCCCSC3CCCCC3)CC2)cc2sccc21
  Potency: inconclusive: 16.4 µM [cytotoxic, partial curve]
